At least one compound was matched to its structure with a doubt left.
Assays:
[1] = In vitro release of dexamethasone from liquid depot in saline (UPLC); assay type: physicochemical; conditions: 50 μL of 10% dexamethasone depot in 200 mL saline, 100 mL exchange, n=6
[2] = In vitro release of loteprednol from liquid depot, samples 66-A and 66-B; assay type: physicochemical; conditions: for Loteprednol cumulative % released, Avg: Avg of 66-A and 66-B

Row | Structure (SMILES) | Time over which dexamethasone was released in vitro [1] | Time loteprednol was released in vitro ([2]; 40% methanol/water at 37° C.) | Loteprednol cumulative % released, Avg ([2]; Day 1) [%] | Loteprednol cumulative % released, Avg ([2]; Day 3) [%] | Loteprednol cumulative % released, Avg ([2]; Day 7) [%] | Loteprednol cumulative % released, Avg ([2]; Day 10) [%] | Loteprednol cumulative % released, Avg ([2]; Day 14) [%]
1 | C[C@@H]1C[C@H]2[C@@H]3CCC4=CC(=O)C=C[C@]4(C)[C@@]3(F)[C@@H](O)C[C@]2(C)[C@@]1(O)C(=O)CO [Dexamethasone, dexamethasone] | ten | – | – | – | – | – | –
2 | CCOC(=O)O[C@]1(C(=O)OCCl)CC[C@H]2[C@@H]3CCC4=CC(=O)C=C[C@]4(C)[C@H]3[C@@H](O)C[C@@]21C [Loteprednol, loteprednol] | – | at least 14 days | 14.4 | 28.1 | 45.4 | 51.3 | 64.9
